Measured values reported in PubChem BioAssay AID1508615 (Milbrandt Lab, Department of Genetics, Washington …, 2020).
In all, about 1,600 compounds went through this assay and about 20 (1%) were called active.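 Rule for the calls: active = ratio of uncleaved NAD to its breakdown product ADP-ribose above 4, meaning the enzyme was inhibited; inactive = the rest.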 Some of the results follow.

Amino acid sequences for entries named in this document (tags omitted). A change or cut given only in a name is not applied to a line headed by its entry.
UniProt Q6SZW1: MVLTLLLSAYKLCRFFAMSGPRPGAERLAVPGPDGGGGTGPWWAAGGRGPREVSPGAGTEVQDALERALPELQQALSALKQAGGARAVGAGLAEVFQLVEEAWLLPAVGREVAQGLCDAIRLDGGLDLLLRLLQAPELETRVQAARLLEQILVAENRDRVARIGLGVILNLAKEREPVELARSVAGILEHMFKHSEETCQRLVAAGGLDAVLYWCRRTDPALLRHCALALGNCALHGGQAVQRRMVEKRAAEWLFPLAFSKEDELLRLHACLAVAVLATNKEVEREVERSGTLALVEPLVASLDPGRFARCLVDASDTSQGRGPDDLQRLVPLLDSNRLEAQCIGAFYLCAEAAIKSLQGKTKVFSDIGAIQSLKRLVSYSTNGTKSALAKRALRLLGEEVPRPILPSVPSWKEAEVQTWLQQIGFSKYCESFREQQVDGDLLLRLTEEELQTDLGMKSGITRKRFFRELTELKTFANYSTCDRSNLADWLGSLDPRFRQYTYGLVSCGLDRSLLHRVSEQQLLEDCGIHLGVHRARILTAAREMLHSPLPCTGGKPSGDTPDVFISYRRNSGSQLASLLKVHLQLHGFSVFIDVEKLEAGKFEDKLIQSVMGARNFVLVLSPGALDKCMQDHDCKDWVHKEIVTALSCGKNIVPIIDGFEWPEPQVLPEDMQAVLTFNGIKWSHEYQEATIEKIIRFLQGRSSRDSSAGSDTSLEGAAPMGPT

These molecules were tested against NAD(+) hydrolase SARM1 (Homo sapiens) (UniProt Q6SZW1) (assay: inhibition of SAM-TIR NAD hydrolysis to ADPR – cell lysate, HPLC readout, primary screen (AID 1508615;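 note: substrate NAD at 5 µM with 60 min at 37 °C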)). Conditions: HEK293T SAM-TIR lysate, NAD/ADPR ratio by HPLC; at 5 µM; stronger effect = higher value.

NAD/ADPR ratio, inactive:
CN1C(=CC=C2C=C(I)C(=O)C(I)=C2)C(C)(C)c2ccccc21 3, O=C(Nc1ccc(C2=NCCCN2)cc1)Nc1ccc(C2=NCCCN2)cc1 3, Cc1cc(N2CCOCC2)nc(N2CCOCC2)n1 3, CC(C)(c1cc(Cl)c(O)c(CN2CCOCC2)c1)c1cc(Cl)c(O)c(CN2CCOCC2)c1 3, CCOc1ccc(NC(=O)N(O)C2(C#N)CCCCC2)cc1 3, CC(C)c1nc2c([nH]1)c(=O)n(C)c(=O)n2C 3, O=CN/C=C/c1cc(O)ccc1O 3, CCOC(=O)C(=O)Cc1cccnn1 3, O=C1C(Br)=Cc2cccc3cccc1c23 3, CCSc1ncc(CO)c(N)n1 3, OC1COC(OCc2ccccc2)C(O)C1O (stereo unspecified) 3, Nc1cc(N)nc(CS)n1 3, Nc1cc(Nc2ccc(Br)cc2)nc(N)n1 3, Cc1cc2c(cc1[N+](=O)[O-])NC(CNC(C)C)CC2 (stereo unspecified) 3, NS(=O)(=O)c1ccc(N=Nc2c(O)c(C(=O)O)cc3ccccc23)cc1 3, CCCCn1c(OC(=S)N(CC)CC)cc(C)nc1=S 3, Oc1ccccc1-c1nc2c3ccccc3c3ccccc3c2[nH]1 3, CN(CCC#N)c1ccc(/C=C(\C#N)c2cccc(C(F)(F)F)c2)cc1 3, CCCCSc1nc(C(=O)O)cc(=O)[nH]1 3, O=C(O)c1cc(O)ccc1N=Nc1ccccc1 3, CC(C)C(=O)c1ccc(O)c(O)c1 3, Cc1c(CCO)c(=O)n2n1CCCC2 3, CCn1c(=O)n(C)c2c(=O)n(C)c(=O)n(C)c21 3, CCn1c2ccccc2c2c3ncc4cccn4c3ccc21 3, Cc1nc2sc3c(c2c(=O)[nH]1)CCCC3 3, CCOC(=O)c1cnn2c(SC)ncnc12 3, C/C(=N\NC(=S)N1CC2CCC(CC2)C1)c1cnccn1 3, CCn1c2ccccc2nc2cc3c(cc21)c(Cl)c(=O)c1ccccc13 3, CCC(C)NC(=S)Nc1ccccc1 (stereo unspecified) 3, COc1cc2c(cc1OC)C(=O)Cc1ccc3c(c1CN(C)CC2)OCO3 3, CCCSc1nc2c(c(=O)n(C)c(=O)n2C)n1C 3, NC(=O)NC1NC(=O)NC1=O (stereo unspecified) 3, Cc1cc2cc3c(=O)[nH]c(=O)[nH]c3nc2cc1C 3, O=C1c2cccc3cc([N+](=O)[O-])cc(c23)C(=O)N1CCN1CCCC1 2.5, CC(C)c1cc(C(F)(F)F)nc(NNc2nc(C(C)C)cc(C(F)(F)F)n2)n1 3, COc1ccc2[nH]c(-c3ccccc3)cc2c1 3, CCC12CCCN3CCc4c(n(c5ccccc45)C(O)(C(=O)OC)C1)C32 (stereo unspecified) 3, COc1ccc(C(=S)N2CCN(c3ccccc3C)CC2)cc1 3, Cc1c(Cl)cccc1NC(=O)CC1Sc2ccccc2NC1=O (stereo unspecified) 3, Cn1c(C(=O)c2ccncc2)cc2ccccc21 3, Nc1ccc2c(c1Cl)C(=O)c1ccc(N)c(Cl)c1C2=O 3, O=[N+]([O-])c1cccnc1Oc1cc(Cl)c(Cl)cc1Cl 3, CCOc1ccc(/C=C2\NC(=S)NC2=O)cc1 3, COc1cc2c(O)cc(C(=O)O)c(-c3cc(OC)c(OC)c(OC)c3)c2cc1OC 3, CC1(C)CC(Nc2ccc(Nc3ccccc3)cc2)CC(C)(C)N1 3, CSC(=O)NC(=O)NC(=O)c1ccc([N+](=O)[O-])cc1 3, Cc1nc([N+](=O)[O-])cn1-c1nc2ccccn2c1[N+](=O)[O-] 3, CCOC(=O)Nc1cc2c(c(N)n1)N=C(c1ccccc1)CN2 3, CCCc1nc2c([nH]1)c(=O)n(C)c(=O)n2C 3, CC(C)NCC1CCc2cc(CO)c([N+](=O)[O-])cc2N1 (stereo unspecified) 3, CS/C(N)=N/S(=O)(=O)c1ccc(NC(C)=O)cc1 3, CC(C)N(Cc1ccccc1)S(=O)(=O)c1n[nH]c(C(C)(C)C)n1 3, COC1OCC(O)C(NC(=O)N(C)N=O)C1O (stereo unspecified) 3, CCCCNC(=O)Nc1ccccc1CC 3, CC1(C)SC(C)(C)N(C=O)C1C(=O)O (stereo unspecified) 3, O=C(O)/C=C/C(=O)Nc1ccc(-c2ccccc2)cc1 3, O=C(Oc1ccccc1)N(c1ccccc1)c1ccccc1 3, COC(=O)C1=CC(=O)N2CCN=C2S1 3, C=CCN(CC=C)C(=O)Nc1cc(OC)ccc1OC 3.2, COc1ccc(OC(=O)Nc2ccc([N+](=O)[O-])cc2OC)cc1 3, O=C(/C=C/c1ccccc1)CC(c1ccccc1)N1CCOCC1 (stereo unspecified) 3, O=[N+]([O-])c1ccc(/C=C/c2ccncc2)cc1 3, Nc1ccn(C2OC(CCl)C(O)C2O)c(=O)n1 (stereo unspecified) 3, O=C(O)/C(=C\c1ccccc1)c1ccccc1 3, COC(=O)CC1OCC=C2CN3CCC45C6=CC(=O)C(=O)C([N+](=O)[O-])=C6NC4C1C2CC35 (stereo unspecified) 3, CCCCCC(=O)N1CCCCC1 3, CN(C)c1ccc(N=Nc2ccccn2)cc1 3, C=CCNC(=S)Nc1cccc([N+](=O)[O-])c1 3, CN(C)c1ccc(/C=C/c2ccc3ccccc3n2)cc1 3, CSc1nc(Cl)cc(=O)[nH]1 3, O=c1[nH]nc(-c2cc(-c3ccccc3)nc3ccccc23)o1 3, S=c1[nH]ccn1-c1c(Cl)cccc1Cl 3, CC(C)NC(=O)c1ccc(C(C)C)cc1 3, CCOC(=O)N1CCN(Cc2c(O)ccc3ccccc23)CC1 3, CN(C)C(=O)OCC1COc2ccccc2O1 (stereo unspecified) 3, O=C(C(Cl)Cl)N1CC2CCC(CC2)C1 3, CC1=NC2=CC=CC3=NC(C(Cl)(Cl)Cl)=NC(=N1)N23 3, c1ccc(Nc2cccc3c(Nc4ccccc4)cccc23)cc1 3, Cc1cccc(C)c1NC(=O)Nc1ccc(S(N)(=O)=O)cc1 3, C=C(C)C(=O)Nc1ccc(NC(C)C)cc1 3, O=C(c1ccccc1)c1ccccc1C(=O)c1ccccc1 3, NS(=O)(=O)c1cc2c(cc1Cl)NC(CC1CCCC1)NS2(=O)=O (stereo unspecified) 3, CCc1oc2ccccc2c1C(=O)c1cc(Br)c(O)c(Br)c1 3, Nc1ccc(Nc2ccccc2)c(S(=O)(=O)O)c1 3, NC(=O)Nc1ccc(Nc2ccccc2)cc1 3, Cc1cc2nc(-c3ccccn3)c(-c3ccccn3)nc2cc1C 3, CCSc1nc(=S)cc(C)[nH]1 3, O=C(O)c1cc2cc(OCc3ccccc3)ccc2[nH]1 3, COc1cc(O)c(C(=O)/C=C/c2ccccc2)c(OC)c1 3, O=c1cc(-c2nn[nH]n2)[nH]c(=O)[nH]1 3, CC(=O)Oc1ccc(C(c2ccc(OC(C)=O)cc2)c2ccccn2)cc1 3, CC(C)Oc1ccc(C(=O)O)cc1 3, c1ccc2c(c1)Nc1cc3ccccc3cc1S2 3, O=c1[nH]cnc2c1ncn2Cc1ccc([N+](=O)[O-])cc1 3, CC1CCCC(CC(=O)O)(CC(=O)O)C1 (stereo unspecified) 3, CCOC(=O)Nc1c(Cl)n(C)c(=O)n(C)c1=O 3, C=CCNC(=S)NCC 3, CCOC(=O)C1(C#N)C(=O)CSC1=Nc1ccccc1Cl (stereo unspecified) 3, CSc1nc(Cl)c(Br)c(Nc2c[nH]c(=O)[nH]c2=O)n1 3, Cc1ccc(NC(=O)N2CCCCC2)cc1[N+](=O)[O-] 3, CSc1n[nH]c(-c2cccs2)n1 3, CCC(=Cc1ccc(CC)cn1)CC 3, Cn1ncc2c(Sc3ccc(Cl)cc3)ncnc21 3, Nc1ccccc1-n1nc2ccc3ccccc3c2n1 3, Cn1ncc2c(Nc3ccc(Br)cc3)nc(Nc3ccc(Br)cc3)nc21 3, CN1CCN(C(=O)Nc2ccc([N+](=O)[O-])cc2)CC1 3, O=C(c1ccccc1)c1ccc(Sc2ccc([N+](=O)[O-])cc2)cc1 3, Cc1cccc(C)c1NC(=O)NCc1ccco1 3, CN(C)c1ccc(/C=C2/C=C(c3ccc4c(c3)CCCC4)OC2=O)cc1 3, C1CCC(NC2=NCCO2)CC1 3, Cc1nc(Nc2ccc(F)cc2)nc(Nc2ccc(F)cc2)c1[N+](=O)[O-] 3, C=CCN=C(NC#N)SC 3, CC(C)CNC(=O)/C=C/C(=O)O 3, Cc1ccc(S(=O)(=O)NNC(=O)C23CCC(CC2)C3)cc1 3, COc1ccc2c(C)cc(C)nc2n1 3, CC(C)(C)C(=O)Nc1ccc(NC(=O)C(C)(C)C)cc1 3, Cc1nc(N)nc(Cl)c1CCC1OCCO1 3, CCC(=O)C=Cc1ccc(N(C)C)cc1 3, CCOC(=O)c1[nH]c(CO)c(C(=O)OCC)c1C 3, CCCOc1ccc(-c2nc(-c3ccc(N)cc3)cs2)cc1 3, COC(=O)c1cc(C)c(C)cc1NC1OC(CO)C(O)C1O (stereo unspecified) 3
